We go through one molecule from publication PMC6277434, “Discovery of a potent HMG-CoA reductase degrader that eliminates statin-induced reductase accumulation and lowers cholesterol” (Nature Communications, 2018).

Chains of the proteins cited; added tags and fusions are not shown. Residues count along the entry.
UniProt P00347, 1-346 limits assumed: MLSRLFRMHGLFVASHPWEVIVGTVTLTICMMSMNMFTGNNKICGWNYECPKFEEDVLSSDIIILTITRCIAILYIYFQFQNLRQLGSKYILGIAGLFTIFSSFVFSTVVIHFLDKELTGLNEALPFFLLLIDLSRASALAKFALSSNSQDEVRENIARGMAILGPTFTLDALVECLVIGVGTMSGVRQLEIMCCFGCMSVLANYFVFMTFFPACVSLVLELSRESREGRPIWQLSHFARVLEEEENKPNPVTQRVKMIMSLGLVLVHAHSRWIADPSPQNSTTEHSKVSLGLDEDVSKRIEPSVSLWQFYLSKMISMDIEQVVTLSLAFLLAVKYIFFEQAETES

The source holds more than one record for some entries. Only these are listed. There may be further records. Results that share an entry do not match, cause unknown; they may come from other doses, times, organisms or constructs than stated.

The assay deals with HMGCR (TM1-8)-GFP (Cricetulus griseus, UniProt P00347). Description: HMGCR (TM1-8)-GFP fluorescent assay (high-content imaging) in CHG cells. The settings on record: 7.8 uM, 16 h, DMSO-treated cells = 100.

With `CC(C)CCC[C@@H](C)[C@H]1CC[C@@]2(C)C3=C(CC[C@]12C)[C@@]1(C)CC[C@H](O)C(C)(C)[C@@H]1CC3` [24,25-DHL, 24,25-dihydrolanosterol], the “HMGCR (TM1-8)-GFP fluorescent intensity, mean” value is 25.7375 and 55.6471.
